Test results reported in patent publication US20070166547A1, “Use of a layer consisting of hydrophobic linear, or two-dimensional polycyclic aromatics as a barrier layer or an encapsulation and electric components constructed with a layer of this type and comprising organic polymers” (priority 2003, published 2007).

Tested on: synthase of nitrogen oxide (NOC)
Test: Morphine abstinence model: activity of synthase of nitrogen oxide (radiometric, [3H]L-citrulline)
Assay type: in vivo, rats Wistar
Details: morphine alone

CN1CC[C@]23c4c5ccc(O)c4O[C@H]2[C@@H](O)C=C[C@H]3[C@H]1C5 [Morphine, reference compound] was tested, and the “Activity of NOC, Hypothalamus, Control + Morphine” value was 3.42 ± 0.54 pmol/min/mg of protein and the “Activity of NOC, Mesencephalon, Control + Morphine” value was 3.08 ± 0.09 pmol/min/mg of protein.
